Test results from patent publication EP1856102B1, “MEDICAMENTS FOR ALZHEIMER” (Tseti, Ioulia, priority 2005, dated 2006).
At least one compound was matched to its structure with a doubt left.

What follows are molecules tested on female Fischer-344 rats. Conditions: s.c. once daily for 4 days; dose 84 µM/kg (Indomethacin, 1, 2, 3) or 1350 µM/kg (Naproxen, 4, 5); + / - not defined.
Procedure: Equimolar doses of the parent NSAIDs and the respective derivatives were administered s.c. once daily for 4 days to female Fischer-344 rats (160-180g). The used dose was ca LD50 of the parent NSAID. The incidence of perforating gastrointestinal ulcers, body weight change, melena and mortality were recorded 24 h after the last treatment. […] Table 3: Gastrointestinal toxicity of indomethacin, naproxen and some novel derivatives in rats

SMILES	Incidence of melena
COc1ccc2c(c1)c(CC(=O)N1CCCC1C(=O)NCCS)c(C)n2C(=O)c1ccc(Cl)cc1 (stereo not shown) [Compound 1, 1-{2-[1-(4-Chloro-benzoyl)-5-methoxy-2-methyl-1-H-indol-3-yl]-acetyl}-pyrrolydine-2-carboxylic acid (2-mercapto-ethyl) amide]	-
CCOC(=O)C(CS)NC(=O)C1CCCN1C(=O)Cc1c(C)n(C(=O)c2ccc(Cl)cc2)c2ccc(OC)cc12 (stereo not shown) [Compound 2, 2-[(1-{2-[1-(4-Chloro-benzoyl)-5-methoxy-2-methyl-1-H-indol-3-yl]-acetyl}-pyrrolidine-2-carbonyl)-amino]-3-mercapto-propionic acid ethyl ester]	-
COc1ccc2c(c1)c(CC(=O)N1CCCC1C(=O)Oc1ccc(C)cc1OC)c(C)n2C(=O)c1ccc(Cl)cc1 (stereo not shown) [Compound 3, 1-{2-[1-(4-Chloro-benzoyl)-5-methoxy-2-methyl-1-H-indol-3-yl]-acetyl}-pyrrolidine-2-carboxylic acid-2-methoxy-4-methyl-phenyl ester]	-
CCOC(=O)C(CS)NC(=O)C1CCCN1C(=O)C(C)c1ccc2cc(OC)ccc2c1 (stereo not shown) [Compound 5]	-
